We go through three molecules from publication PMC8605363.

No constants are given. Whether binding was seen depends on the method and setting. Binding seen in cells or lysates may run through a third protein. A yes stands for co-enrichment or nearness to the bait. Other partners may have been found.

Sequences and labels used below:
T1: CBLL1 (human (endogenous in HUVEC)) (UniProt Q75N03)
T1 sequence: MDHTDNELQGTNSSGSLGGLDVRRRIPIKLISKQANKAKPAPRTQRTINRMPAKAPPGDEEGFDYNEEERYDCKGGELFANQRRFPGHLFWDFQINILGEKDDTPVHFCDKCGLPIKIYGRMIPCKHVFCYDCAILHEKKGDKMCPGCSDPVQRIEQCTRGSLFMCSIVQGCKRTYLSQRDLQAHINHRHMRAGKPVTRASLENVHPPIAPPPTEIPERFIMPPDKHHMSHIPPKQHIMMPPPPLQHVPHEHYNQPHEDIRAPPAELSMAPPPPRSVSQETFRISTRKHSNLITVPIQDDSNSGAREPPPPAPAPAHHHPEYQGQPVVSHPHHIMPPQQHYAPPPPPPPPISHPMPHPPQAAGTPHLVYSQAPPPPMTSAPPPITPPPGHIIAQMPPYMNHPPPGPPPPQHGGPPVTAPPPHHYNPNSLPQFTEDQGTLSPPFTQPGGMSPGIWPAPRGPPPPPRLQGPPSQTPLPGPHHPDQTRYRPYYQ

B1: cleavage and polyadenylation-specific factor CPSF2 (protein, UniProt Q9P2I0 1-782)
chain: MTSIIKLTTLSGVQEESALCYLLQVDEFRFLLDCGWDEHFSMDIIDSLRKHVHQIDAVLLSHPDPLHLGALPYAVGKLGLNCAIYATIPVYKMGQMFMYDLYQSRHNTEDFTLFTLDDVDAAFDKIQQLKFSQIVNLKGKGHGLSITPLPAGHMIGGTIWKIVKDGEEEIVYAVDFNHKREIHLNGCSLEMLSRPSLLITDSFNATYVQPRRKQRDEQLLTNVLETLRGDGNVLIAVDTAGRVLELAQLLDQIWRTKDAGLGVYSLALLNNVSYNVVEFSKSQVEWMSDKLMRCFEDKRNNPFQFRHLSLCHGLSDLARVPSPKVVLASQPDLECGFSRDLFIQWCQDPKNSIILTYRTTPGTLARFLIDNPSEKITEIELRKRVKLEGKELEEYLEKEKLKKEAAKKLEQSKEADIDSSDESDIEEDIDQPSAHKTKHDLMMKGEGSRKGSFFKQAKKSYPMFPAPEERIKWDEYGEIIKPEDFLVPELQATEEEKSKLESGLTNGDEPMDQDLSDVPTKCISTTESIEIKARVTYIDYEGRSDGDSIKKIINQMKPRQLIIVHGPPEASQDLAECCRAFGGKDIKVYMPKLHETVDATSETHIYQVRLKDSLVSSLQFCKAKDAELAWIDGVLDMRVSKVDTGVILEEGELKDDGEDSEMQVEAPSDSSVIAQQKAMKSLFGDDEKETGEESEIIPTLEPLPPHEVPGHQSVFMNEPRLSDFKQVLLREGIQAEFVGGVLVCNNQVAVRRTETGRIGLEGCLCQDFYRIRDLLYEQYAIV
B2: RBM15 (protein, UniProt Q96T37 1-977)
chain: MRTAGRDPVPRRSPRWRRAVPLCETSAGRRVTQLRGDDLRRPATMKGKERSPVKAKRSRGGEDSTSRGERSKKLGGSGGSNGSSSGKTDSGGGSRRSLHLDKSSSRGGSREYDTGGGSSSSRLHSYSSPSTKNSSGGGESRSSSRGGGGESRSSGAASSAPGGGDGAEYKTLKISELGSQLSDEAVEDGLFHEFKRFGDVSVKISHLSGSGSGDERVAFVNFRRPEDARAAKHARGRLVLYDRPLKIEAVYVSRRRSRSPLDKDTYPPSASVVGASVGGHRHPPGGGGGQRSLSPGGAALGYRDYRLQQLALGRLPPPPPPPLPRDLERERDYPFYERVRPAYSLEPRVGAGAGAAPFREVDEISPEDDQRANRTLFLGNLDITVTESDLRRAFDRFGVITEVDIKRPSRGQTSTYGFLKFENLDMSHRAKLAMSGKIIIRNPIKIGYGKATPTTRLWVGGLGPWVPLAALAREFDRFGTIRTIDYRKGDSWAYIQYESLDAAHAAWTHMRGFPLGGPDRRLRVDFADTEHRYQQQYLQPLPLTHYELVTDAFGHRAPDPLRGARDRTPPLLYRDRDRDLYPDSDWVPPPPPVRERSTRTAATSVPAYEPLDSLDRRRDGWSLDRDRGDRDLPSSRDQPRKRRLPEESGGRHLDRSPESDRPRKRHCAPSPDRSPELSSSRDRYNSDNDRSSRLLLERPSPIRDRRGSLEKSQGDKRDRKNSASAERDRKHRTTAPTEGKSPLKKEDRSDGSAPSTSTASSKLKSPSQKQDGGTAPVASASPKLCLAWQGMLLLKNSNFPSNMHLLQGDLQVASSLLVEGSTGGKVAQLKITQRLRLDQPKLDEVTRRIKVAGPNGYAILLAVPGSSDSRSSSSSAASDTATSTQRPLRNLVSYLKQKQAAGVISLPVGGNKDKENTGVLHAFPPCEFSQQFLDSPAKALAKSEEDYLVMIIVRGFGFQIGVRYENKKRENLALTLL
B3: cleavage and polyadenylation-specific factor CPSF1 (protein, UniProt Q10570 1-1443)
chain: MYAVYKQAHPPTGLEFSMYCNFFNNSERNLVVAGTSQLYVYRLNRDAEALTKNDRSTEGKAHREKLELAASFSFFGNVMSMASVQLAGAKRDALLLSFKDAKLSVVEYDPGTHDLKTLSLHYFEEPELRDGFVQNVHTPRVRVDPDGRCAAMLVYGTRLVVLPFRRESLAEEHEGLVGEGQRSSFLPSYIIDVRALDEKLLNIIDLQFLHGYYEPTLLILFEPNQTWPGRVAVRQDTCSIVAISLNITQKVHPVIWSLTSLPFDCTQALAVPKPIGGVVVFAVNSLLYLNQSVPPYGVALNSLTTGTTAFPLRTQEGVRITLDCAQATFISYDKMVISLKGGEIYVLTLITDGMRSVRAFHFDKAAASVLTTSMVTMEPGYLFLGSRLGNSLLLKYTEKLQEPPASAVREAADKEEPPSKKKRVDATAGWSAAGKSVPQDEVDEIEVYGSEAQSGTQLATYSFEVCDSILNIGPCANAAVGEPAFLSEEFQNSPEPDLEIVVCSGHGKNGALSVLQKSIRPQVVTTFELPGCYDMWTVIAPVRKEEEDNPKGEGTEQEPSTTPEADDDGRRHGFLILSREDSTMILQTGQEIMELDTSGFATQGPTVFAGNIGDNRYIVQVSPLGIRLLEGVNQLHFIPVDLGAPIVQCAVADPYVVIMSAEGHVTMFLLKSDSYGGRHHRLALHKPPLHHQSKVITLCLYRDLSGMFTTESRLGGARDELGGRSGPEAEGLGSETSPTVDDEEEMLYGDSGSLFSPSKEEARRSSQPPADRDPAPFRAEPTHWCLLVRENGTMEIYQLPDWRLVFLVKNFPVGQRVLVDSSFGQPTTQGEARREEATRQGELPLVKEVLLVALGSRQSRPYLLVHVDQELLIYEAFPHDSQLGQGNLKVRFKKVPHNINFREKKPKPSKKKAEGGGAEEGAGARGRVARFRYFEDIYGYSGVFICGPSPHWLLVTGRGALRLHPMAIDGPVDSFAPFHNVNCPRGFLYFNRQGELRISVLPAYLSYDAPWPVRKIPLRCTAHYVAYHVESKVYAVATSTNTPCARIPRMTGEEKEFETIERDERYIHPQQEAFSIQLISPVSWEAIPNARIELQEWEHVTCMKTVSLRSEETVSGLKGYVAAGTCLMQGEEVTCRGRILIMDVIEVVPEPGQPLTKNKFKVLYEKEQKGPVTALCHCNGHLVSAIGQKIFLWSLRASELTGMAFIDTQLYIHQMISVKNFILAADVMKSISLLRYQEESKTLSLVSRDAKPLEVYSVDFMVDNAQLGFLVSDRDRNLMVYMYLPEAKESFGGMRLLRRADFHVGAHVNTFWRTPCRGATEGLSKKSVVWENKHITWFATLDGGIGLLLPMQEKTYRRLLMLQNALTTMLPHHAGLNPRAFRMLHVDRRTLQNAVRNVLDGELLNRYLYLSTMERSELAKKIGTTPDIILDDLLETDRVTAHF

This test concerns the target T1, CBLL1 (human (endogenous in HUVEC)). In words: affinity purification with mass spectrometry; endogenous CBLL1 immunopurified from HUVEC whole cell lysates (lysis buffer with 250 mM KCl, 0.1% NP-40, Benzonase) with anti-CBLL1 monoclonal antibodies cross-linked to Dynabeads Protein G, 4 h at 4 °C; washed with 0.5 M KCl-HEGN and 0.1 M KCl-HEGN; shotgun LC/MS/MS; negative control anti-gp64 antibody.
On to B1, for which the binding result is given as “binds”.
The same measure for B2: “binds”; for B3: “binds”.
